Paper PMC3196545
No constants are given. Whether binding was seen depends on the method and setting. Some entries that bind do so weakly or less than the wild type. Where a sequence is shown, tags or fusion partners need not be part of it.

Biological target: T1, PEDF^41–121 fused to the DNA binding domain of LexA (pEG202-PEDF^41–121) (human) (UniProt P36955)
T1 sequence: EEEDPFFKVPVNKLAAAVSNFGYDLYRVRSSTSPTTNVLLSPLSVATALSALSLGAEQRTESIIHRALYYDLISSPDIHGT
Assay: two-hybrid; LexA DNA binding domain bait fusion and B42 activation domain target fusion library (human fetal brain cDNA in pJG4-5), yeast EGY48, LEU2 and LacZ reporters

B1: Transportin-SR2 C-terminal region (amino acids 827 to 923), library clone H in pJG4-5 (domain or fragment, UniProt Q9Y5L0-2 827-923)
chain: NQLGQQLVSQLLHTCCFCLPPYTLPDVAEVLWEIMQVDRPTFCRWLENSLKGLPKETTVGAVTVTHKQLTDFHKQVTSAEECKQVCWALRDFTRLFR
binding: binds
